These are yes or no findings as the source states them, for the method shown. Some results given as binding are weak or reduced against the parent protein; the word gives no strength.
Key:
[1] = molecular target: T1, rpoB, core β subunit of the plastid-encoded RNA polymerase (PEP) (Arabidopsis thaliana (endogenous in seedlings)) (UniProt P50546); test: condition: only in rcb-1/PBG, rcb-2/PBG and rcb-10 mutant seedlings; native gel or EMSA; blue-native PAGE and immunoblots with anti-rpoB and anti-HMR; rcb-1/PBG, rcb-2/PBG and rcb-10 mutant seedlings grown in 10 μmol m^-2 s^-1 R light
T1 sequence: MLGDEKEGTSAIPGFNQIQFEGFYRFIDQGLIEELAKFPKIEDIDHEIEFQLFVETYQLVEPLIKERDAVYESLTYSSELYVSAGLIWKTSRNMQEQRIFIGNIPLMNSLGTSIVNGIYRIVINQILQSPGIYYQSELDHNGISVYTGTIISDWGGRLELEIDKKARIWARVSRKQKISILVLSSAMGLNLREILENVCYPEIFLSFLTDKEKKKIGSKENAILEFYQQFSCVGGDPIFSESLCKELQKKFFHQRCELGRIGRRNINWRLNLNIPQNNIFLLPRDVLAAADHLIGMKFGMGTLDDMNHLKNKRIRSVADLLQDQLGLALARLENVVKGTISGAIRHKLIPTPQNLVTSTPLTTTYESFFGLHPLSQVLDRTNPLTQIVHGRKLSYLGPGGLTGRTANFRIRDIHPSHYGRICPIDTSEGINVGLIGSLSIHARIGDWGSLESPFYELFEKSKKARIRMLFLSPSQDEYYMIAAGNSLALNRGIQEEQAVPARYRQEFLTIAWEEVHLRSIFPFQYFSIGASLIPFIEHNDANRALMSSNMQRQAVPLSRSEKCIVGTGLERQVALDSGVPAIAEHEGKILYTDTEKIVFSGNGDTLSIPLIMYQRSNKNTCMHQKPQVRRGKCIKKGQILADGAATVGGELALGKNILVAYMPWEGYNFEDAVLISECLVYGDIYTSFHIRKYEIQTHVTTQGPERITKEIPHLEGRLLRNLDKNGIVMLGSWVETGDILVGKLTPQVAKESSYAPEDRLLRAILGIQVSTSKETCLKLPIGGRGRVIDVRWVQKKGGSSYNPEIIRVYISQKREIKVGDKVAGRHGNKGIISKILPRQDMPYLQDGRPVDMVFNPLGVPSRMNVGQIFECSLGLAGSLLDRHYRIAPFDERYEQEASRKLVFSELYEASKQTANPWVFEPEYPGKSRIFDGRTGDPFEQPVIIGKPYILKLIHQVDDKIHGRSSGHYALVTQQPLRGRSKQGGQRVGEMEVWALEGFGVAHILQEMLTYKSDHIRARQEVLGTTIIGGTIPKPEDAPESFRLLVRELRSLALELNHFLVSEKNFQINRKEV

[2] = molecular target: T1, rpoB, core β subunit of the plastid-encoded RNA polymerase (PEP) (Arabidopsis thaliana (endogenous in seedlings)); test: native gel or EMSA; blue-native PAGE (4-16%) of native extracts of 4-d-old Col-0 seedlings grown in 10 μmol m^-2 s^-1 R light, treated with 1% n-dodecyl β-D-maltoside and Benzonase; immunoblots with anti-rpoB and anti-HMR
[3] = molecular target: T1, rpoB, core β subunit of the plastid-encoded RNA polymerase (PEP) (Arabidopsis thaliana (endogenous in seedlings)); test: condition: only in phyA-211/phyB-9 and phyABCDE mutant seedlings; native gel or EMSA; blue-native PAGE and immunoblots with anti-rpoB and anti-HMR; phyA-211/phyB-9 and phyABCDE mutant seedlings grown in R light
[4] = molecular target: T1, rpoB, core β subunit of the plastid-encoded RNA polymerase (PEP) (Arabidopsis thaliana (endogenous in seedlings)); test: native gel or EMSA; blue-native PAGE and immunoblots with anti-rpoB and anti-HMR; Col-0 seedlings grown in darkness

B1: HEMERA (HMR)/pTAC12, PEP-associated protein (protein, UniProt F4IHY7 31-527)
chain: VKCGFPLKTLHAGITSRDRSLRHCIKCKKEDGDGDVSEGSKKSEEGFEYVTVERHPYHSYMDSTSGKLEPASGARASIPGEDYWPEGTSSRVRAARAPQPAGESSSFPSYGKNPGSRRKKNRKATEENVTVETNDEVSDSEDSSEEEENDSSDGFVTYKNEFEREEEETGFELDKKLGRPHPFIDPTKKKQIEKTLTSDESWWNWRKPEKEQWSRWQRRRPDVETVFLKAMAETGQVKLYGEEPTLTETSLYRARRHLFKEERLQAERERLAKEGPMAFYSEWVKAWKRDTSREAVQKHFEETGEDENTQLIEMFSHQTDREYRIMMGTDIRIKRDPLAMRMREDQIKQIWGGDPVYPTINYIQDPNAVMDFRGPDFHEPTPNMLSYLKENGKVISREMHEALLTKEKTEQLEVPDMDDAMAQAVDIGENDDDEDDADVEKDDEKVPRNWSVLKETPELRTAKPKPKKEGRMSLDEAVDDAENLTDFLMDFEEETDP
In the case of B1, the binding [1] is reported as “no binding”, the binding [2] is reported as “binds” and the binding [3] is reported as “no binding”. For the same binder, the binding [4] was “no binding (condition: seedlings grown in the dark)”.

Source: paper PMC6570650
